From the supplement of paper PMC9015667
Where a name gives a salt, the structure may show the parent alone. The list shows a part of the results. Single values are uncertain, as repeats are few or missing.

tested on: M249P (parental melanoma line); test: reduction in cell viability relative to untreated/vehicle; higher = more growth inhibition; settings: 200 nM; 72 h

SMILES | reduction in cell viability [%]
CNCCCC12CCC(c3ccccc31)c1ccccc12 [Maprotiline hydrochloride] | < 0
COc1ccc(/C=C\c2cc(OC)c(OC)c(OC)c2)cc1NC(=O)[C@@H](N)CO [Ombrabulin] | 54.3
COc1ccc(-c2nc(N3CCOCC3)c3sc(CN(C)c4ncc(C(=O)NO)cn4)cc3n2)cn1 | < 0
Cc1cn2cc(C(=O)N(C)CCO)cc(N[C@@H]3CCOc4cccc(C)c43)c2n1 | < 0
CC1(C)NC(=O)N(c2ccc([N+](=O)[O-])c(C(F)(F)F)c2)C1=O [Nilutamide] | < 0
COc1ccc(OC)c(-c2nnc3ccc(-c4ccc(OC)c(O[C@@H]5CCOC5)c4)nn23)c1 | < 0
O=c1ccn([C@@H]2O[C@H](CO)[C@@H](O)[C@H]2O)c(=O)[nH]1 [Uridine] | < 0
Cc1ccc(C(=O)Nc2cccc(C(F)(F)F)c2)cc1Nc1nc(-c2cccnc2)nc2c1cnn2C | < 0
Oc1cc(O)c(Cl)cn1 [Gimeracil] | < 0
C[C@H]1O[C@@H](O[C@H]2[C@@H](O)C[C@H](O[C@H]3[C@@H](O)C[C@H](O[C@H]4CC[C@@]5(C)[C@H](CC[C@@H]6[C@@H]5C[C@@H](O)[C@]5(C)[C@@H](C7=CC(=O)OC7)CC[C@]65O)C4)O[C@@H]3C)O[C@@H]2C)C[C@H](O)[C@@H]1O [Digoxin] | 86.5
COc1cc(C(=O)NS(=O)(=O)c2ccccc2C)ccc1Cc1cn(C)c2ccc(NC(=O)OC3CCCC3)cc12 [Zafirlukast] | < 0
Cn1cnc2c(F)c(Nc3ccc(Br)cc3F)c(C(=O)NOCCO)cc21 | 67.4

Some of the entries so far, with tabs:
SMILES	reduction in cell viability [%]
COc1ccc(/C=C\c2cc(OC)c(OC)c(OC)c2)cc1NC(=O)[C@@H](N)CO [Ombrabulin]	54.3
Oc1cc(O)c(Cl)cn1 [Gimeracil]	< 0
COc1cc(C(=O)NS(=O)(=O)c2ccccc2C)ccc1Cc1cn(C)c2ccc(NC(=O)OC3CCCC3)cc12 [Zafirlukast]	< 0
